Assay results reported in patent US20110020239A1, “METHODS FOR IN VIVO IMAGING OF CELLS” (The Johns Hopkins University, priority 2007, published 2011).

Test system: PFOB labeled islets in kidney of mice
Experiment: CT and 19F MRI of labeled islets transplanted under the renal capsule of mice
Format: in vivo, mouse

FC(F)(F)C(F)(F)C(F)(F)C(F)(F)C(F)(F)C(F)(F)C(F)(F)C(F)(F)Br [PFOB, perfluorooctylbromide]
detection of labeled islets by high resolution 19F MRI (after transplantation into the kidney of mice): clearly distinguishable from soft tissue
detection of labeled islets by CT imaging (in vivo after transplantation into the kidney of mice): identified in vivo
